# Patent publication US20190002562A1 (INTERVET, published 2019)
# These are yes or no findings as the source states them, for the method shown. For some of these results: Binding can be weak; no strength is given.
# B1: can2H9 VH4/VL3 IgGB (antibody)
# heavy: EVQLVQSGGDLVKPGGSVRLSCVASGFNIKNTYMHWVRQAPGKGLQWIGRIAPANVDTKYAPKFQGKATISADTAKNTAYMQLNSLRAEDTAVYYCVLIYYDYDGDIDVWGQGTLVTVSSASTTAPSVFPLAPSCGSTSGSTVALACLVSGYFPEPVTVSWNSGSLTSGVHTFPSVLQSSGLYSLSSMVTVPSSRWPSETFTCNVAHPASKTKVDKPVPKRENGRVPRPPDCPKCPAPEMLGGPSVFIFPPKPKDTLLIARTPEVTCVVVDLDPEDPEVQISWFVDGKQMQTAKTQPREEQFNGTYRVVSVLPIGHQDWLKGKQFTCKVNNKALPSPIERTISKARGQAHQPSVYVLPPSREELSKNTVSLTCLIKDFFPPDIDVEWQSNGQQEPESKYRTTPPQLDEDGSYFLYSKLSVDKSRWQRGDTFICAVMHEALHNHYTQESLSHSPGK
# light: DIVMTQTPLSLSVSLGEPASISCHASQNINVWLSWYRQKPGQIPQLLIYKASHLHTGVPDRFSGSGSGTDFTLRISRVEADDAGVYYCQQGQSWPLTFGQGTKVEIKRNDAQPAVYLFQPSPDQLHTGSASVVCLLNSFYPKDINVKWKVDGVIQDTGIQESVTEQDSKDSTYSLSSTLTMSSTEYLSHELYSCEITHKSLPSTLIKSFQRSECQRVD
# notes: also called 2H9 VH4 IgGB/VL3; caninized 2H9 with un-modified IgGB Fc
# B2: can2H9 ADCC (1061) VH4/VL3 (antibody)
# heavy: EVQLVQSGGDLVKPGGSVRLSCVASGFNIKNTYMHWVRQAPGKGLQWIGRIAPANVDTKYAPKFQGKATISADTAKNTAYMQLNSLRAEDTAVYYCVLIYYDYDGDIDVWGQGTLVTVSSASTTAPSVFPLAPSCGSTSGSTVALACLVSGYFPEPVTVSWNSGSLTSGVHTFPSVLQSSGLYSLSSMVTVPSSRWPSETFTCNVAHPASKTKVDKPVPKRENGRVPRPPDCPKCPAPEMLGGPSVFIFPPKPKDTLLIARTPEVTCVVVDLDPEDPEVQISWFVDGKQMQTAKTQPREEQFNGTYRVVSVLPIGHQDWLKGKQFTCKVNNKALASPIERTISKARGQAHQPSVYVLPPSREELSKNTVSLTCLIKDFFPPDIDVEWQSNGQQEPESKYRTTPPQLDEDGSYFLYSKLSVDKSRWQRGDTFICAVMHEALHNHYTQESLSHSPGK
# light: DIVMTQTPLSLSVSLGEPASISCHASQNINVWLSWYRQKPGQIPQLLIYKASHLHTGVPDRFSGSGSGTDFTLRISRVEADDAGVYYCQQGQSWPLTFGQGTKVEIKRNDAQPAVYLFQPSPDQLHTGSASVVCLLNSFYPKDINVKWKVDGVIQDTGIQESVTEQDSKDSTYSLSSTLTMSSTEYLSHELYSCEITHKSLPSTLIKSFQRSECQRVD
# notes: also called can2H9 VH4 IgGB ADCC (1061)/VL3; YZZ1061
# B3: can2H9 ADCC mut-1 VH4/VL3 (antibody)
# heavy: EVQLVQSGGDLVKPGGSVRLSCVASGFNIKNTYMHWVRQAPGKGLQWIGRIAPANVDTKYAPKFQGKATISADTAKNTAYMQLNSLRAEDTAVYYCVLIYYDYDGDIDVWGQGTLVTVSSASTTAPSVFPLAPSCGSTSGSTVALACLVSGYFPEPVTVSWNSGSLTSGVHTFPSVLQSSGLYSLSSMVTVPSSRWPSETFTCNVAHPASKTKVDKPVPKRENGRVPRPPDCPKCPAPEMLGGPSVFIFPPKPKDTLLIARTPEVTCVVVALDPEDPEVQISWFVDGKQMQTAKTQPREEQFNGTYRVVSVLPIGHQDWLKGKQFTCKVNNKALPSPIERTISKARGQAHQPSVYVLPPSREELSKNTVSLTCLIKDFFPPDIDVEWQSNGQQEPESKYRTTPPQLDEDGSYFLYSKLSVDKSRWQRGDTFICAVMHEALHNHYTQESLSHSPGK
# light: DIVMTQTPLSLSVSLGEPASISCHASQNINVWLSWYRQKPGQIPQLLIYKASHLHTGVPDRFSGSGSGTDFTLRISRVEADDAGVYYCQQGQSWPLTFGQGTKVEIKRNDAQPAVYLFQPSPDQLHTGSASVVCLLNSFYPKDINVKWKVDGVIQDTGIQESVTEQDSKDSTYSLSSTLTMSSTEYLSHELYSCEITHKSLPSTLIKSFQRSECQRVD
# notes: also called can2H9VH4 IgGB ADCC (mut-1)/VL3; YZZ1057/Mut-1
# B4: can2H9 ADCC mut-2 VH4/VL3 (antibody)
# heavy: EVQLVQSGGDLVKPGGSVRLSCVASGFNIKNTYMHWVRQAPGKGLQWIGRIAPANVDTKYAPKFQGKATISADTAKNTAYMQLNSLRAEDTAVYYCVLIYYDYDGDIDVWGQGTLVTVSSASTTAPSVFPLAPSCGSTSGSTVALACLVSGYFPEPVTVSWNSGSLTSGVHTFPSVLQSSGLYSLSSMVTVPSSRWPSETFTCNVAHPASKTKVDKPVPKRENGRVPRPPDCPKCPAPEMLGGPSVFIFPPKPKDTLLIARTPEVTCVVVDLDPEDPEVQISWFVDGKQMQTAKTQPREEQFAGTYRVVSVLPIGHQDWLKGKQFTCKVNNKALPSPIERTISKARGQAHQPSVYVLPPSREELSKNTVSLTCLIKDFFPPDIDVEWQSNGQQEPESKYRTTPPQLDEDGSYFLYSKLSVDKSRWQRGDTFICAVMHEALHNHYTQESLSHSPGK
# light: DIVMTQTPLSLSVSLGEPASISCHASQNINVWLSWYRQKPGQIPQLLIYKASHLHTGVPDRFSGSGSGTDFTLRISRVEADDAGVYYCQQGQSWPLTFGQGTKVEIKRNDAQPAVYLFQPSPDQLHTGSASVVCLLNSFYPKDINVKWKVDGVIQDTGIQESVTEQDSKDSTYSLSSTLTMSSTEYLSHELYSCEITHKSLPSTLIKSFQRSECQRVD
# notes: also called can2H9 VH4 IgGB ADCC (mut-2)/VL3; YZZ1058/Mut-2
# B5: can2H9 ADCC(1059) VH4/VL3 (antibody)
# heavy: EVQLVQSGGDLVKPGGSVRLSCVASGFNIKNTYMHWVRQAPGKGLQWIGRIAPANVDTKYAPKFQGKATISADTAKNTAYMQLNSLRAEDTAVYYCVLIYYDYDGDIDVWGQGTLVTVSSASTTAPSVFPLAPSCGSTSGSTVALACLVSGYFPEPVTVSWNSGSLTSGVHTFPSVLQSSGLYSLSSMVTVPSSRWPSETFTCNVAHPASKTKVDKPVPKRENGRVPRPPDCPKCPAPEMLGGASVFIFPPKPKDTLLIARTPEVTCVVVDLDPEDPEVQISWFVDGKQMQTAKTQPREEQFNGTYRVVSVLPIGHQDWLKGKQFTCKVNNKALPSPIERTISKARGQAHQPSVYVLPPSREELSKNTVSLTCLIKDFFPPDIDVEWQSNGQQEPESKYRTTPPQLDEDGSYFLYSKLSVDKSRWQRGDTFICAVMHEALHNHYTQESLSHSPGK
# light: DIVMTQTPLSLSVSLGEPASISCHASQNINVWLSWYRQKPGQIPQLLIYKASHLHTGVPDRFSGSGSGTDFTLRISRVEADDAGVYYCQQGQSWPLTFGQGTKVEIKRNDAQPAVYLFQPSPDQLHTGSASVVCLLNSFYPKDINVKWKVDGVIQDTGIQESVTEQDSKDSTYSLSSTLTMSSTEYLSHELYSCEITHKSLPSTLIKSFQRSECQRVD
# notes: also called can2H9 VH4 IgGB ADCC(1059)/VL3; YZZ1059
# B6: can2H9 ADCC(1060) VH4/VL3 (antibody)
# heavy: EVQLVQSGGDLVKPGGSVRLSCVASGFNIKNTYMHWVRQAPGKGLQWIGRIAPANVDTKYAPKFQGKATISADTAKNTAYMQLNSLRAEDTAVYYCVLIYYDYDGDIDVWGQGTLVTVSSASTTAPSVFPLAPSCGSTSGSTVALACLVSGYFPEPVTVSWNSGSLTSGVHTFPSVLQSSGLYSLSSMVTVPSSRWPSETFTCNVAHPASKTKVDKPVPKRENGRVPRPPDCPKCPAPEMLGGPSVFIFPPKPKDTLLIARTPEVTCVVVDLDPEDPEVQISWFVDGKQMQTAKTQPREEQFNGTYRVVSVLPIGHQDWLKGKQFTCKVNNKGLPSPIERTISKARGQAHQPSVYVLPPSREELSKNTVSLTCLIKDFFPPDIDVEWQSNGQQEPESKYRTTPPQLDEDGSYFLYSKLSVDKSRWQRGDTFICAVMHEALHNHYTQESLSHSPGK
# light: DIVMTQTPLSLSVSLGEPASISCHASQNINVWLSWYRQKPGQIPQLLIYKASHLHTGVPDRFSGSGSGTDFTLRISRVEADDAGVYYCQQGQSWPLTFGQGTKVEIKRNDAQPAVYLFQPSPDQLHTGSASVVCLLNSFYPKDINVKWKVDGVIQDTGIQESVTEQDSKDSTYSLSSTLTMSSTEYLSHELYSCEITHKSLPSTLIKSFQRSECQRVD
# notes: also called YZZ1060
# B7: can2H9 IgGD VH4/VL3 (antibody)
# heavy chain: EVQLVQSGGDLVKPGGSVRLSCVASGFNIKNTYMHWVRQAPGKGLQWIGRIAPANVDTKYAPKFQGKATISADTAKNTAYMQLNSLRAEDTAVYYCVLIYYDYDGDIDVWGQGTLVTVSSASTTAPSVFPLAPSCGSTSGSTVALACLVSGYFPEPVTVSWNSGSLTSGVHTFPSVLQSSGLYSLSSTVTVPSSRWPSETFTCNVVHPASNTKVDKPVPKESTCKCISPCPVPESLGGPSVFIFPPKPKDILRITRTPEITCVVLDLGREDPEVQISWFVDGKEVHTAKTQPREQQFNSTYRVVSVLPIEHQDWLTGKEFKCRVNHIGLPSPIERTISKARGQAHQPSVYVLPPSPKELSSSDTVTLTCLIKDFFPPEIDVEWQSNGQPEPESKYHTTAPQLDEDGSYFLYSKLSVDKSRWQQGDTFTCAVMHEALQNHYTDLSLSHSPGK
# light chain: DIVMTQTPLSLSVSLGEPASISCHASQNINVWLSWYRQKPGQIPQLLIYKASHLHTGVPDRFSGSGSGTDFTLRISRVEADDAGVYYCQQGQSWPLTFGQGTKVEIKRNDAQPAVYLFQPSPDQLHTGSASVVCLLNSFYPKDINVKWKVDGVIQDTGIQESVTEQDSKDSTYSLSSTLTMSSTEYLSHELYSCEITHKSLPSTLIKSFQRSECQRVD
# notes: also called can2H9 VH4 IgGD/VL3
# B8: can2H9 ADCC (1062) VH4/VL3 (antibody)
# heavy: EVQLVQSGGDLVKPGGSVRLSCVASGFNIKNTYMHWVRQAPGKGLQWIGRIAPANVDTKYAPKFQGKATISADTAKNTAYMQLNSLRAEDTAVYYCVLIYYDYDGDIDVWGQGTLVTVSSASTTAPSVFPLAPSCGSTSGSTVALACLVSGYFPEPVTVSWNSGSLTSGVHTFPSVLQSSGLYSLSSMVTVPSSRWPSETFTCNVAHPASKTKVDKPVPKRENGRVPRPPDCPKCPAPEMLGGPSVFIFPPKPKDTLLIARTPEVTCVVVALDPEDPEVQISWFVDGKQMQTAKTQPREEQFAGTYRVVSVLPIGHQDWLKGKQFTCKVNNKALPSPIERTISKARGQAHQPSVYVLPPSREELSKNTVSLTCLIKDFFPPDIDVEWQSNGQQEPESKYRTTPPQLDEDGSYFLYSKLSVDKSRWQRGDTFICAVMHEALHNHYTQESLSHSPGK
# light: DIVMTQTPLSLSVSLGEPASISCHASQNINVWLSWYRQKPGQIPQLLIYKASHLHTGVPDRFSGSGSGTDFTLRISRVEADDAGVYYCQQGQSWPLTFGQGTKVEIKRNDAQPAVYLFQPSPDQLHTGSASVVCLLNSFYPKDINVKWKVDGVIQDTGIQESVTEQDSKDSTYSLSSTLTMSSTEYLSHELYSCEITHKSLPSTLIKSFQRSECQRVD
# notes: also called YZZ1062
# Columns and labels:
# C1q protein [1] = experiment: ELISA: antibody titrated on coated PD-1 HIS, then C1q at 4 ug/mL, goat anti-C1q and donkey anti-goat-HRP
# C1q protein [2] = experiment: ELISA: antibody captured on PD-1 HIS, C1q added
# C1q protein [3] = experiment: condition: 2-fold dilutions of antibody starting at 1 µg/mL; C1q at 4 µg/mL; ELISA: antibody captured on PD-1 HIS, C1q added
Binder,binding (C1q protein [1]),binding (C1q protein [2]),binding (C1q protein [3])
B1,binds,–,–
B2,binds,binds,–
B3,binds,binds,–
B4,binds,binds,–
B5,binds,binds,–
B6,binds,binds,–
B7,no binding (tested: log(nM) about 0.83 (1 ug/mL)),–,–
B8,–,–,no binding
